Source: PMC10499988 (Nature Communications, 2023)
No constants are given. Whether binding was seen depends on the method and setting. Some entries that bind do so weakly or less than the wild type.

Amino acid sequences for entries named in this document (tags omitted). Residues count along the entry.
UniProt P02768, residues 25-609: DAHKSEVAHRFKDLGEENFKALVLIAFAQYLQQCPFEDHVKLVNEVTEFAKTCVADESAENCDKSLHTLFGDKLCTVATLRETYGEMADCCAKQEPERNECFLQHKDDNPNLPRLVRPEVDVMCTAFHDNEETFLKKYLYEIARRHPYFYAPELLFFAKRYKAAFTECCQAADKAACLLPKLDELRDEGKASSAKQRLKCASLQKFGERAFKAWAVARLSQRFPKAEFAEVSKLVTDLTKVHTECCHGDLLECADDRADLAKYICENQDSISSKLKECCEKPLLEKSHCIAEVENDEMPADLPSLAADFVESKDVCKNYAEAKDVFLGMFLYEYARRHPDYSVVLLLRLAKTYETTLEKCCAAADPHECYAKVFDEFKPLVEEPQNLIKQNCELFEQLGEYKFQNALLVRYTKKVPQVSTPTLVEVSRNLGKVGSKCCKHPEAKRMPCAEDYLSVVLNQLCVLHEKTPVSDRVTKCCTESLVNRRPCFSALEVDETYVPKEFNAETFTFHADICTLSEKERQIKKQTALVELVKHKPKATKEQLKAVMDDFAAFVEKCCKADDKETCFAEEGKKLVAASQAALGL

Molecular target: Human Serum Albumin (HSA) (human) (UniProt P02768)
Assay: ITC; peptides against HSA, SA-21 as control; complex multi-site behaviour, no affinity derived; both purified

B1: SA-21 (Ac-…-NH2) (peptide)
peptide: RLIEDICLPRWGCLWEDD
modifications: N-terminal acetyl; C-terminal amide; macrocyclic peptide
B1 was tested, and the binding was “binds”.
